Results are given in words; binding and its absence hold for the method and conditions named. Some results given as binding are weak or reduced against the parent protein; the word gives no strength.

For the assay, the target named is T1, Sis1_(1–81), J-domain of Sis1 (residues 1–81) (S. cerevisiae) (UniProt P25294).
T1 sequence: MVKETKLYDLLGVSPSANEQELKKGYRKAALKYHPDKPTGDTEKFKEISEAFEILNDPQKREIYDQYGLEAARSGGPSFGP
The assay is described as follows: NMR titration; 1H-15N HSQC of 15N-Sis1(1-81) (1 mM by the legend, 0.5 mM by the methods) free and with 1, 2 and 4 mM GPTIEEVD (1:4 for CSP); 25 mM Tris-HCl pH 7.5, 200 mM NaCl, 10% D2O, 298 K; fast exchange; both purified.

B1: GPTIEEVD peptide (EEVD peptide, C-terminal motif of HSP70/Ssa1) (peptide)
peptide: GPTIEEVD
notes: also called Ssa1-EEVD; source: synthetic peptide (GenOne Biotechnologies, Rio de Janeiro)
Turning to B1, the binding entry is given as “binds weakly”.

B2: Sis1_(1–81), J-domain of Sis1 (residues 1–81) (domain or fragment, UniProt P25294 1-81)
chain: T1 sequence
Turning to B2, the binding entry is listed as “no binding”.
